Assay results reported in US20250152545A1, “NOVEL ANTIVIRAL COMPOSITIONS COMPRISING OLEIC ACID” (SUBINTRO LIMITED, priority 2021, published 2025).
At least one compound was matched to its structure with a doubt left.

Test system: H1N1 infected ALI cultured human nasal epithelium
Assay type: cell-based

CCC(CC)O[C@@H]1C=C(C(=O)O)C[C@H](N)[C@H]1NC(C)=O [oseltamivir carboxylate]
protection of epithelial integrity (TEER), assay control (in words) (10 μM, basal treatment): protected against loss of epithelial integrity
restoration of TEER levels reduced by H1N1 (in words) (apical treatment, oseltamivir carboxylate 1 μM and/or surfactants 0.15% polysorbate 80 + 0.2% oleic acid, 48 hrs post infection): fully
